In the series the test system is DYT1 patient plasma derived EVs. As to the kind of experiment: Plasma-derived EV proteomics (ExoQuick ULTRA, DIA LC/MS/MS), DYT1 vs Healthy Controls. The arrangement: species or system human. As to conditions: for Log2FC: DYT1 patients as compared to healthy controls; for Log2_FC / Directionality: Hs. Plasma EVs (DYT1/WT); for Log2_FC: protein level, human patient derived EVs by genotype; for Mean DYT1 / Mean HC: protein abundance; for Mean DYT1: DYT1 patients; for Mean HC: healthy controls (HC); for Hs. Plasma EVs (DYT1/WT): directionality of protein change, human plasma derived EVs, DYT1 vs WT(HC). In outline:
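Plasma EVs enriched with ExoQuick ULTRA; 500 ng per sample run on EvoSep One UPLC (SPD30 gradient, ~5–30% acetonitrile/0.1% formic acid, 50 C) coupled to Orbitrap Astral. DIA mode: full MS r=240,000, m/z 380-980; 4 m/z fixed windows, HCD 27%.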

The values that follow come from patent publication US20260266848A1, “COMPOSITIONS AND METHODS FOR DIAGNOSING AND TREATING DYSTONIA” (Duke University, priority 2023, published 2026).

B1: TUBB1 (protein, UniProt Q9H4B7 1-451, looked up)
Tubulin beta-1 chain: MREIVHIQIGQCGNQIGAKFWEMIGEEHGIDLAGSDRGASALQLERISVYYNEAYGRKYVPRAVLVDLEPGTMDSIRSSKLGALFQPDSFVHGNSGAGNNWAKGHYTEGAELIENVLEVVRHESESCDCLQGFQIVHSLGGGTGSGMGTLLMNKIREEYPDRIMNSFSVMPSPKVSDTVVEPYNAVLSIHQLIENADACFCIDNEALYDICFRTLKLTTPTYGDLNHLVSLTMSGITTSLRFPGQLNADLRKLAVNMVPFPRLHFFMPGFAPLTAQGSQQYRALSVAELTQQMFDARNTMAACDLRRGRYLTVACIFRGKMSTKEVDQQLLSVQTRNSSCFVEWIPNNVKVAVCDIPPRGLSMAATFIGNNTAIQEIFNRVSEHFSAMFKRKAFVHWYTSEGMDINEFGEAENNIHDLVSEYQQFQDAKAVLEEDEEVTEEAEMEPEDKGH
For the molecule B1, the Log2FC is recorded as 1.1985, the Log2_FC is 1.199, the “Mean DYT1” value came out at 6.368 and the “Mean HC” value turned out to be 5.17.

B2: AP1B1 (protein, UniProt Q10567 1-949, looked up)
AP-1 complex subunit beta-1: MTDSKYFTTTKKGEIFELKAELNSDKKEKKKEAVKKVIASMTVGKDVSALFPDVVNCMQTDNLELKKLVYLYLMNYAKSQPDMAIMAVNTFVKDCEDPNPLIRALAVRTMGCIRVDKITEYLCEPLRKCLKDEDPYVRKTAAVCVAKLHDINAQLVEDQGFLDTLKDLISDSNPMVVANAVAALSEIAESHPSSNLLDLNPQSINKLLTALNECTEWGQIFILDCLANYMPKDDREAQSICERVTPRLSHANSAVVLSAVKVLMKFMEMLSKDLDYYGTLLKKLAPPLVTLLSAEPELQYVALRNINLIVQKRPEILKHEMKVFFVKYNDPIYVKLEKLDIMIRLASQANIAQVLAELKEYATEVDVDFVRKAVRAIGRCAIKVEQSAERCVSTLLDLIQTKVNYVVQEAIVVIKDIFRKYPNKYESVIATLCENLDSLDEPEARAAMIWIVGEYAERIDNADELLESFLEGFHDESTQVQLQLLTAIVKLFLKKPTETQELVQQVLSLATQDSDNPDLRDRGYIYWRLLSTDPVAAKEVVLAEKPLISEETDLIEPTLLDELICYIGTLASVYHKPPSAFVEGGRGVVHKSLPPRTASSESAESPETAPTGAPPGEQPDVIPAQGDLLGDLLNLDLGPPVSGPPLATSSVQMGAVDLLGGGLDSLMGDEPEGIGGTNFVAPPTAAVPANLGAPIGSGLSDLFDLTSGVGTLSGSYVAPKAVWLPAMKAKGLEISGTFTRQVGSISMDLQLTNKALQVMTDFAIQFNRNSFGLAPAAPLQVHAPLSPNQTVEISLPLSTVGSVMKMEPLNNLQVAVKNNIDVFYFSTLYPLHILFVEDGKMDRQMFLATWKDIPNENEAQFQIRDCPLNAEAASSKLQSSNIFTVAKRNVEGQDMLYQSLKLTNGIWVLAELRIQPGNPSCTDLELSLKCRAPEVSQHVYQAYETILKN
On to B2, for which the Log2FC is reported as −1.3386, the Directionality result is on record as “DOWN”, the Log2_FC is on record as -1.339 and the “Hs. Plasma EVs (DYT1/WT)” value was “DOWN”. The “Mean DYT1” value came to 4.856 and the “Mean HC” value is reported as 6.19.

B3: USP2 (protein, UniProt O75604 1-605, looked up)
Ubiquitin carboxyl-terminal …: MSQLSSTLKRYTESARYTDAHYAKSGYGAYTPSSYGANLAASLLEKEKLGFKPVPTSSFLTRPRTYGPSSLLDYDRGRPLLRPDITGGGKRAESQTRGTERPLGSGLSGGSGFPYGVTNNCLSYLPINAYDQGVTLTQKLDSQSDLARDFSSLRTSDSYRIDPRNLGRSPMLARTRKELCTLQGLYQTASCPEYLVDYLENYGRKGSASQVPSQAPPSRVPEIISPTYRPIGRYTLWETGKGQAPGPSRSSSPGRDGMNSKSAQGLAGLRNLGNTCFMNSILQCLSNTRELRDYCLQRLYMRDLHHGSNAHTALVEEFAKLIQTIWTSSPNDVVSPSEFKTQIQRYAPRFVGYNQQDAQEFLRFLLDGLHNEVNRVTLRPKSNPENLDHLPDDEKGRQMWRKYLEREDSRIGDLFVGQLKSSLTCTDCGYCSTVFDPFWDLSLPIAKRGYPEVTLMDCMRLFTKEDVLDGDEKPTCCRCRGRKRCIKKFSIQRFPKILVLHLKRFSESRIRTSKLTTFVNFPLRDLDLREFASENTNHAVYNLYAVSNHSGTTMGGHYTAYCRSPGTGEWHTFNDSSVTPMSSSQVRTSDAYLLFYELASPPSRM
Consider B3, for which the Log2FC is given as −1.4420, the “Mean DYT1” value is 3.197 and the “Mean HC” value worked out at 4.64.

B4: SELENOF (protein, UniProt O60613 32-165, looked up)
Selenoprotein F: FGAEFSSEACRELGFSSNLLCSSCDLLGQFNLLQLDPDCRGCCQEEAQFETKKLYAGAILEVCGUKLGRFPQVQAFVRSDKPKLFRGLQIKYVRGSDPVLKLLDDNGNIAEELSILKWNTDSVEEFLSEKLERI
Take B4: the Log2FC was −0.9996, the “Mean DYT1” value came to 6.279 and the “Mean HC” value is 7.28.

B5: ZYX (protein, UniProt Q15942 2-572, looked up)
Zyxin: AAPRPSPAISVSVSAPAFYAPQKKFGPVVAPKPKVNPFRPGDSEPPPAPGAQRAQMGRVGEIPPPPPEDFPLPPPPLAGDGDDAEGALGGAFPPPPPPIEESFPPAPLEEEIFPSPPPPPEEEGGPEAPIPPPPQPREKVSSIDLEIDSLSSLLDDMTKNDPFKARVSSGYVPPPVATPFSSKSSTKPAAGGTAPLPPWKSPSSSQPLPQVPAPAQSQTQFHVQPQPQPKPQVQLHVQSQTQPVSLANTQPRGPPASSPAPAPKFSPVTPKFTPVASKFSPGAPGGSGSQPNQKLGHPEALSAGTGSPQPPSFTYAQQREKPRVQEKQHPVPPPAQNQNQVRSPGAPGPLTLKEVEELEQLTQQLMQDMEHPQRQNVAVNELCGRCHQPLARAQPAVRALGQLFHIACFTCHQCAQQLQGQQFYSLEGAPYCEGCYTDTLEKCNTCGEPITDRMLRATGKAYHPHCFTCVVCARPLEGTSFIVDQANRPHCVPDYHKQYAPRCSVCSEPIMPEPGRDETVRVVALDKNFHMKCYKCEDCGKPLSIEADDNGCFPLDGHVLCRKCHTARAQT
In the case of B5, the Log2FC is 0.9322, the Log2_FC worked out at 0.9322, the “Mean DYT1” value is listed as 4.425 and the “Mean HC” value turned out to be 3.49.

B6: KCNB2 (protein, UniProt Q92953 1-911, looked up)
Potassium voltage-gated …: MAEKAPPGLNRKTSRSTLSLPPEPVDIIRSKTCSRRVKINVGGLNHEVLWRTLDRLPRTRLGKLRDCNTHESLLEVCDDYNLNENEYFFDRHPGAFTSILNFYRTGKLHMMEEMCALSFGQELDYWGIDEIYLESCCQARYHQKKEQMNEELRREAETMREREGEEFDNTCCPDKRKKLWDLLEKPNSSVAAKILAIVSILFIVLSTIALSLNTLPELQETDEFGQLNDNRQLAHVEAVCIAWFTMEYLLRFLSSPNKWKFFKGPLNVIDLLAILPYYVTIFLTESNKSVLQFQNVRRVVQIFRIMRILRILKLARHSTGLQSLGFTLRRSYNELGLLILFLAMGIMIFSSLVFFAEKDEDATKFTSIPASFWWATITMTTVGYGDIYPKTLLGKIVGGLCCIAGVLVIALPIPIIVNNFSEFYKEQKRQEKAIKRREALERAKRNGSIVSMNLKDAFARSMELIDVAVEKAGESANTKDSADDNHLSPSRWKWARKALSETSSNKSFENKYQEVSQKDSHEQLNNTSSSSPQHLSAQKLEMLYNEITKTQPHSHPNPDCQEKPERPSAYEEEIEMEEVVCPQEQLAVAQTEVIVDMKSTSSIDSFTSCATDFTETERSPLPPPSASHLQMKFPTDLPGTEEHQRARGPPFLTLSREKGPAARDGTLEYAPVDITVNLDASGSQCGLHSPLQSDNATDSPKSSLKGSNPLKSRSLKVNFKENRGSAPQTPPSTARPLPVTTADFSLTTPQHISTILLEETPSQGDRPLLGTEVSAPCQGPSKGLSPRFPKQKLFPFSSRERRSFTEIDTGDDEDFLELPGAREEKQVDSSPNCFADKPSDGRDPLREEGSVGSSSPQDTGHNCRQDIYHAVSEVKKDSSQEGCKMENHLFAPEIHSNPGDTGYCPTRETSM
For the molecule B6, the Log2FC is reported as 2.4057, the “Mean DYT1” value came to 7.576 and the “Mean HC” value stood at 5.17.

B7: GP9 (protein, UniProt P14770 17-177, looked up)
Platelet glycoprotein IX: TKDCPSPCTCRALETMGLWVDCRGHGLTALPALPARTRHLLLANNSLQSVPPGAFDHLPQLQTLDVTQNPWHCDCSLTYLRLWLEDRTPEALLQVRCASPSLAAHGPLGRLTGYQLGSCGWQLQASWVRPGVLWDVALVAVAALGLALLAGLLCATTEALD
Turning to B7, the Log2FC is given as 1.4570, the “Mean DYT1” value was determined as 8.645 and the “Mean HC” value is reported as 7.19.

B8: PCDHB15 (protein, UniProt Q9Y5E8 27-787, looked up)
Protocadherin beta-15: GWEPRRYSVMEETERGSFVANLANDLGLGVGELAERGARVVSEDNEQGLQLDLQTGQLILNEKLDREKLCGPTEPCIMHFQVLLKKPLEVFRAELLVTDINDHSPEFPEREMTLKIPETSSLGTVFPLKKARDLDVGSNNVQNYNISPNSHFHVSTRTRGDGRKYPELVLDTELDREEQAELRLTLTAVDGGSPPRSGTVQILILVLDANDNAPEFVQALYEVQVPENSPVGSLVVKVSARDLDTGTNGEISYSLYYSSQEIDKPFELSSLSGEIRLIKKLDFETMSSYDLDIEASDGGGLSGKCSVSVKVLDVNDNFPELSISSLTSPIPENSPETEVALFRIRDRDSGENGKMICSIQDDVPFKLKPSVENFYRLVTEGALDRETRAEYNITITITDLGTPRLKTEQSITVLVSDVNDNAPAFTQTSYTLFVRENNSPALHIGSVSATDRDSGTNAQVTYSLLPPRDPHLPLTSLVSINTDNGHLFALQSLDYEALQAFEFRVGATDRGFPALSSEALVRVLVLDANDNSPFVLYPLQNGSAPCTELVPRAAEPGYLVTKVVAVDGDSGQNAWLSYQLLKATEPGLFGVWAHNGEVRTARLLSERDVAKHRLVVLVKDNGEPPRSATATLQVLLVDGFSQPYLPLPEAAPAQAQADSLTVYLVVALASVSSLFLFSVFLFVAVRLCRRSRAASVGRCSVPEGPFPGHLVDVSGTGTLSQSYQYEVCLTGGSESNDFKFLKPIFPNIVSQDSRRKSEFLE
For B8, the Log2FC is given as −1.3119, the “Mean DYT1” value is 10.301 and the “Mean HC” value is 11.61.

B9: RBM3 (protein, UniProt P98179 1-157, looked up)
RNA-binding protein 3: MSSEEGKLFVGGLNFNTDEQALEDHFSSFGPISEVVVVKDRETQRSRGFGFITFTNPEHASVAMRAMNGESLDGRQIRVDHAGKSARGTRGGGFGAHGRGRSYSRGGGDQGYGSGRYYDSRPGGYGYGYGRSRDYNGRNQGGYDRYSGGNYRDNYDN
With B9, the Log2FC is −1.3483, the Directionality result is listed as “DOWN”, the Log2_FC was -1.348 and the “Hs. Plasma EVs (DYT1/WT)” value is on record as “DOWN”. Also, the “Mean DYT1” value stood at 3.694 and the “Mean HC” value was found to be 5.04.
